In patent publication US20230330254A1, “ANTI-GLP1R ANTIBODY-TETHERED DRUG CONJUGATES COMPRISING GLP1 PEPTIDOMIMETICS AND USES THEREOF” (Regeneron Pharmaceuticals, Inc., priority 2022, published 2023):
No constants are given. Whether binding was seen depends on the method and setting. Some results given as binding are weak or reduced against the parent protein; the word gives no strength.

Sequences of proteins named here, by UniProt entry; tags and fusion partners are left off. A change or cut given only in a name is not applied to a line headed by its entry. A line that says so, or that is headed by a name, gives the form on record, which may keep a tag or linker. Residues count along the entry.
UniProt P43220, residues 24-463: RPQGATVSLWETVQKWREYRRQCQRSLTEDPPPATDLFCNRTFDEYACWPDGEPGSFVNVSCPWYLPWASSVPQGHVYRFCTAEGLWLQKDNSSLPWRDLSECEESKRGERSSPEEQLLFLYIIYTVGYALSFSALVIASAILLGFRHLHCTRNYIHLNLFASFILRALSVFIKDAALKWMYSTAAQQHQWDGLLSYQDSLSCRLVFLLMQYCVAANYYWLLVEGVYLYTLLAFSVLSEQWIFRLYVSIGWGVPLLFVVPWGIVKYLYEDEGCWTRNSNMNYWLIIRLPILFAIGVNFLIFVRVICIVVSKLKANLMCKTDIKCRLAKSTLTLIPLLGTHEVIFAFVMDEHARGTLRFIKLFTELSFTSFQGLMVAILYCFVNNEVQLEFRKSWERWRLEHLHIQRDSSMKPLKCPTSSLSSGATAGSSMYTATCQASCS
full-length cynomolgus GLP1R on HEK293/CRE-Luc/mfGLP1R cells (F8V479, form named): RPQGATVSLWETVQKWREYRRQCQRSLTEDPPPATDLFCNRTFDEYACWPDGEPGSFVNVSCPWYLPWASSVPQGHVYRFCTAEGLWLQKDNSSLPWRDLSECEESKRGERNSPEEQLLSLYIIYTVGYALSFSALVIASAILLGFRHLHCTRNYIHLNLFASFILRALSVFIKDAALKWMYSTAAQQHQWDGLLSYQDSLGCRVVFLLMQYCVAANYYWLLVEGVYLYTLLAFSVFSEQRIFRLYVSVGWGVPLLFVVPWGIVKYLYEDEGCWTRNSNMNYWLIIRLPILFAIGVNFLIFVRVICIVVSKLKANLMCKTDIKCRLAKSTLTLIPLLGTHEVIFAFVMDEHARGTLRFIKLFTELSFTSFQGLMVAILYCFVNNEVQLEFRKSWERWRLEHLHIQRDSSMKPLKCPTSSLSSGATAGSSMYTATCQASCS

Assays:
[1] = molecular target: N-terminal ectodomain of human GLP1R expressed with a myc-myc hexahistidine tag (human) (UniProt P43220); assay: SPR
[2] = molecular target: full-length cynomolgus GLP1R on HEK293/CRE-Luc/mfGLP1R cells (cynomolgus) (UniProt F8V479); assay: flow cytometry
[3] = molecular target: full-length human GLP1R on HEK293/CRE-Luc/hGLP1R cells (human) (UniProt P43220); assay: flow cytometry

Binder	binding [1]	binding [2]	binding [3]
H2aM30341N (antibody, V domains shown) VH: QVQLQQWGAGLLKPSETLSLTCAVYGGSFSGYYWSWIRQPPGKGLEWIGEINHAGSTNYNPSLKSRITISVDTSKNQFSLKLSSVTAADTAVYYCARGWYYGSGSYHRNWFDPWGQGTLVTVSS VL: EIVLTQSPGTLSLSPGERATLSCRASQSVYYSYLAWYQQKPGQAPRLLIYGASNRATGIPDRFSGSGSGTDFTLTISRLEPEDFAVYYCQQYGNSPWTFGQGTKVEIK	binds	binds	binds
REGN8051 (antibody, V domains shown) VH: QVQLVESGGGVGQPGRSLRLSCAASGFTFSRNAMHWVRQAPGKGLEWVAVISYDGSNKHYADSVKGRFTISRDNSKNTLYLEMNSLRVEDTAVYYCAKGGIPFDYWGQGTLVTVSS VL: DIVMTQSPLSSPVTLGQPASISCRSSQSLVHFDGNTYLSWLHQRPGQPPRLLIYKISNRFSGVPDRFSGSGAGTDFTLKISRVEPEDVGVYYCMHATQFPYTFGQGTKLEIK	binds	binds	–
REGN8070 (antibody, human IgG4 S228P, kappa, V domains shown) VH: QVQLVESGGGVGQPGRSLRLSCAASGFTFSRNAMHWVRQAPGKGLEWVAVISYDGSNKHYADSVKGRFTISRDNSKNTLYLEMNSLRVEDTAVYYCAKGGIPFDYWGQGTLVTVSS VL: DIVMTQSPLSSPVTLGQPASISCRSSQSLVHFDGNTYLSWLHQRPGQPPRLLIYKISNRFSGVPDRFSGSGAGTDFTLKISRVEPEDVGVYYCMHATQFPYTFGQGTKLEIKR	–	binds	–
REGN8070-M3190 (antibody, human IgG4 S228P, kappa, V domains shown, linker-payload M3190 (LP11) on Gln 3 of the N-terminal Q-tag LLQGSG) VH: QVQLVESGGGVGQPGRSLRLSCAASGFTFSRNAMHWVRQAPGKGLEWVAVISYDGSNKHYADSVKGRFTISRDNSKNTLYLEMNSLRVEDTAVYYCAKGGIPFDYWGQGTLVTVSS VL: DIVMTQSPLSSPVTLGQPASISCRSSQSLVHFDGNTYLSWLHQRPGQPPRLLIYKISNRFSGVPDRFSGSGAGTDFTLKISRVEPEDVGVYYCMHATQFPYTFGQGTKLEIKR	binds	binds	–
REGN9278 (antibody, human IgG4 S228P, kappa, V domains shown) VH: QVQLQQWGAGLLKPSETLSLTCAVYGGSFSGYYWSWIRQPPGKGLEWIGEINHAGSTNYNPSLKSRITISVDTSKNQFSLKLSSVTAADTAVYYCARGWYYGSGSYHRNWFDPWGQGTLVTVSS VL: EIVLTQSPGTLSLSPGERATLSCRASQSVYYSYLAWYQQKPGQAPRLLIYGASNRATGIPDRFSGSGSGTDFTLTISRLEPEDFAVYYCQQYGNSPWTFGQGTKVEIKR	–	binds	–
REGN9278-M3190 (antibody, human IgG4 S228P, kappa, V domains shown, linker-payload M3190 (LP11) on Gln 3 of the N-terminal Q-tag LLQGSG) VH: QVQLQQWGAGLLKPSETLSLTCAVYGGSFSGYYWSWIRQPPGKGLEWIGEINHAGSTNYNPSLKSRITISVDTSKNQFSLKLSSVTAADTAVYYCARGWYYGSGSYHRNWFDPWGQGTLVTVSS VL: EIVLTQSPGTLSLSPGERATLSCRASQSVYYSYLAWYQQKPGQAPRLLIYGASNRATGIPDRFSGSGSGTDFTLTISRLEPEDFAVYYCQQYGNSPWTFGQGTKVEIKR	binds	–	–
